No constants are given. Whether binding was seen depends on the method and setting. For part of these data: Binding seen in cells or lysates may run through a third protein. Some entries that bind do so weakly or less than the wild type. For part of these data: Tags and fused reporters may be left off the sequences shown. One block for each binder: values may come before it.
How the values were obtained:
OSCP-GFP10 = target: T1, OSCP-GFP10 (UniProt P48047); assay: split reporter; tripartite split GFP in sMPNST cells co-transfected with mito-GFP1-9, a GFP10 fusion and a GFP11 fusion; MitoTracker red, fixed 48 h after transfection, microscopy; also in TRAP1 or CyPD knock-out cells and with 100 µM i5 or 2 µM CsA
T1 sequence: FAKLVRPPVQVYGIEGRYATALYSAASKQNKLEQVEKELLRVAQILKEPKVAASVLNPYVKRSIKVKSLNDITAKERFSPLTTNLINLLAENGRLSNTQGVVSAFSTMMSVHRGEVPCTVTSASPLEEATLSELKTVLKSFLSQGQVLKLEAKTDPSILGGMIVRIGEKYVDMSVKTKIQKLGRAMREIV

Sequences of proteins named here, by UniProt entry; tags and fusion partners are left off. Residues count along the entry.
UniProt P31040, residues 43-664: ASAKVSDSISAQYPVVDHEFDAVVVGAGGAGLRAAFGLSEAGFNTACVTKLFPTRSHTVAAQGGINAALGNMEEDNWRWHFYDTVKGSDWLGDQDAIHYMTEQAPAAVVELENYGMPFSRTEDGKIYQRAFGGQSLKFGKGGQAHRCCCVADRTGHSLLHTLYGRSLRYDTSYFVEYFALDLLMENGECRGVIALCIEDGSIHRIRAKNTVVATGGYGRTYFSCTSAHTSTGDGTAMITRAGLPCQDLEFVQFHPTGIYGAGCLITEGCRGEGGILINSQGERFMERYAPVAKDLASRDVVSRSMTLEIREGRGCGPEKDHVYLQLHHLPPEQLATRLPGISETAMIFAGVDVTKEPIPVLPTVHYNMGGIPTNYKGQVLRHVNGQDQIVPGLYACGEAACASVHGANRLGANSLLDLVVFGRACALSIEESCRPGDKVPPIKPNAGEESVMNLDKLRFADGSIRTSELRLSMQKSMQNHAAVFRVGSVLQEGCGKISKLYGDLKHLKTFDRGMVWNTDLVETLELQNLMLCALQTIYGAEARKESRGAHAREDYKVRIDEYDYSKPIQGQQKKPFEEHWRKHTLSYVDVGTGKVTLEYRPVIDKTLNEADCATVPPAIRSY
UniProt P13621, residues 24-213: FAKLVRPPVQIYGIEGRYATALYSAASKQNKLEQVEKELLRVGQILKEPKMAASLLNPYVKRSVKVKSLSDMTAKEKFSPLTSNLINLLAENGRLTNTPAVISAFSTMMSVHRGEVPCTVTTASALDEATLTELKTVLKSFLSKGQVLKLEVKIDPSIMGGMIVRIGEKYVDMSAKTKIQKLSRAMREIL
UniProt P19483, residues 44-553: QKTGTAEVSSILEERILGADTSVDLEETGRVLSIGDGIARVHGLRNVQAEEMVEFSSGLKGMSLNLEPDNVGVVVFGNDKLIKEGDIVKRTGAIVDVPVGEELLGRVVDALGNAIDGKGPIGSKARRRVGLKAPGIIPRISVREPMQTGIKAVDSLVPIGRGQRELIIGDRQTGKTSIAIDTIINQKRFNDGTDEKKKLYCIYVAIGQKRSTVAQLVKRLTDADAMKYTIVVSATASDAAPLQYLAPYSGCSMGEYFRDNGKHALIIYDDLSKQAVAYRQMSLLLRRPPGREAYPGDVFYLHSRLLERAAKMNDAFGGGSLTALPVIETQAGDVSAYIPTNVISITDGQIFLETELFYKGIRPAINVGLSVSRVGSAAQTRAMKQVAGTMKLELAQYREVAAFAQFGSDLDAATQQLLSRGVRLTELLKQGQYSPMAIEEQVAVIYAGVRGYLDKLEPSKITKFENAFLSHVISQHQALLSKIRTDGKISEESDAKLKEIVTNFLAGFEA
UniProt P00829, residues 47-528: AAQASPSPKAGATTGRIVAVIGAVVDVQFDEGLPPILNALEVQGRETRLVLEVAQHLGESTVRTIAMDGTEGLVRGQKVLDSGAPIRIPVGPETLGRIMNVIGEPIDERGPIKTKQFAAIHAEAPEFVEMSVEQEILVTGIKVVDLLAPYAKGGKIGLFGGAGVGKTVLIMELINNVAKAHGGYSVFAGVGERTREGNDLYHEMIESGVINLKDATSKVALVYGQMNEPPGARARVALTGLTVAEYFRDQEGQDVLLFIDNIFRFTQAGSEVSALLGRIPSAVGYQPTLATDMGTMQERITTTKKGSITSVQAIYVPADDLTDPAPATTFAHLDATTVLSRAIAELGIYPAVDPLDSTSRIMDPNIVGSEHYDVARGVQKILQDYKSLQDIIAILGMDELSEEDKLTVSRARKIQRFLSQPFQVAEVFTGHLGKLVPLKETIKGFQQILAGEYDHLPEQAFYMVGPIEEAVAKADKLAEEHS
UniProt Q28852: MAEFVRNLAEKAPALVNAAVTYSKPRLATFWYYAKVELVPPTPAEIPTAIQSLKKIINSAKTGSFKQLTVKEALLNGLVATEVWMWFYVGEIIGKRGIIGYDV
UniProt P13619, residues 43-256: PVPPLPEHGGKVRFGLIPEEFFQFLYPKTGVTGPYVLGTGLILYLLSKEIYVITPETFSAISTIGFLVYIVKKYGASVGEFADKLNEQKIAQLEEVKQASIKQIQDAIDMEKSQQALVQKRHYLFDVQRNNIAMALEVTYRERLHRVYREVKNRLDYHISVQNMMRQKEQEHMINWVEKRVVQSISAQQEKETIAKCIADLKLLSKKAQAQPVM

SDHA-GFP10 = SDHA-GFP10 (UniProt P31040); assay: as above
[1] = substrate: OSCP subunit of purified bovine heart F-ATP synthase (bovine) (UniProt P13621); assay: far-Western, overlay or dot blot; purified bovine F-ATP synthase subunits or purified CyPD separated by SDS-PAGE and transferred onto nitrocellulose; incubated with or without 50 µg purified TRAP1 for 30 min in overlay buffer (50 mM Tris-HCl pH 7.5, 200 mM NaCl, 3% BSA, 0.1% polyethylene glycol); detected with anti-TRAP1 antibody; casein as negative control; both purified
[2] = target: T2, γ subunit of purified bovine heart F-ATP synthase (bovine) (UniProt P05631); assay: as above
T2 sequence: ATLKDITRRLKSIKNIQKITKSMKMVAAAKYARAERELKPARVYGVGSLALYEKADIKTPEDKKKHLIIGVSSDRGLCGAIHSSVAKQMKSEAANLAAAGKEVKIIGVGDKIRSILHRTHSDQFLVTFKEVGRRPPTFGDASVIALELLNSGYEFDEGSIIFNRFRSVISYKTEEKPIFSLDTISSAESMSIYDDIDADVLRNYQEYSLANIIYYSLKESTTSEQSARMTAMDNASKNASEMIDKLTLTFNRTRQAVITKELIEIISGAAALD

[3] = target: α subunit of purified bovine heart F-ATP synthase (bovine) (UniProt P19483); assay: as above
[4] = target: β subunit of purified bovine heart F-ATP synthase (bovine) (UniProt P00829); assay: as above
[5] = target: g subunit of purified bovine heart F-ATP synthase (bovine) (UniProt Q28852); assay: as above
[6] = target: b subunit of purified bovine heart F-ATP synthase (bovine) (UniProt P13619); assay: as above
[7] = target: purified recombinant human cyclophilin D (human), P30405; assay: as above; conditions: remark: other sources report otherwise

binding (OSCP-GFP10): no binding
binding (SDHA-GFP10): binds
B1: SDHB-GFP11 (protein, UniProt P21912 29-280)
chain: AQTAAATAPRIKKFAIYRWDPDKAGDKPHMQTYEVDLNKCGPMVLDALIKIKNEVDSTLTFRRSCREGICGSCAMNINGGNTLACTRRIDTNLNKVSKIYPLPHMYVIKDLVPDLSNFYAQYKSIEPYLKKKDESQEGKQQYLQSIEEREKLDGLYECILCACCSTSCPSYWWNGDKYLGPAVLMQAYRWMIDSRDDFTEERLAKLQDPFSLYRCHTIMNCTRTCPKGLNPGKAIAEIKKMMATYKEKKASV

binding [1]: binds
binding [2]: binds
binding [3]: binds
binding [4]: binds
binding [5]: binds
binding [6]: binds
B2: purified human TRAP1 (protein, UniProt Q12931 60-704)
chain: STQTAEDKEEPLHSIISSTESVQGSTSKHEFQAETKKLLDIVARSLYSEKEVFIRELISNASDALEKLRHKLVSDGQALPEMEIHLQTNAEKGTITIQDTGIGMTQEELVSNLGTIARSGSKAFLDALQNQAEASSKIIGQFGVGFYSAFMVADRVEVYSRSAAPGSLGYQWLSDGSGVFEIAEASGVRTGTKIIIHLKSDCKEFSSEARVRDVVTKYSNFVSFPLYLNGRRMNTLQAIWMMDPKDVREWQHEEFYRYVAQAHDKPRYTLHYKTDAPLNIRSIFYVPDMKPSMFDVSRELGSSVALYSRKVLIQTKATDILPKWLRFIRGVVDSEDIPLNLSRELLQESALIRKLRDVLQQRLIKFFIDQSKKDAEKYAKFFEDYGLFMREGIVTATEQEVKEDIAKLLRYESSALPSGQLTSLSEYASRMRAGTRNIYYLCAPNRHLAEHSPYYEAMKKKDTEVLFCFEQFDELTLLHLREFDKKKLISVETDIVVDHYKEEKFEDRSPAAECLSEKETEELMAWMRNVLGSRVTNVKVTLRLDTHPAMVTVLEMGAARHFLRMQQLAKTQEERAQLLQPTLEINPRHALIKKLNQLRASEPGLAQLLVDQIYENAMIAAGLVDDPRAMVGRLNELLVKALERH

binding [7]: binds
B3: purified human TRAP1, Q12931 60-704 (protein)
chain: STQTAEDKEEPLHSIISSTESVQGSTSKHEFQAETKKLLDIVARSLYSEKEVFIRELISNASDALEKLRHKLVSDGQALPEMEIHLQTNAEKGTITIQDTGIGMTQEELVSNLGTIARSGSKAFLDALQNQAEASSKIIGQFGVGFYSAFMVADRVEVYSRSAAPGSLGYQWLSDGSGVFEIAEASGVRTGTKIIIHLKSDCKEFSSEARVRDVVTKYSNFVSFPLYLNGRRMNTLQAIWMMDPKDVREWQHEEFYRYVAQAHDKPRYTLHYKTDAPLNIRSIFYVPDMKPSMFDVSRELGSSVALYSRKVLIQTKATDILPKWLRFIRGVVDSEDIPLNLSRELLQESALIRKLRDVLQQRLIKFFIDQSKKDAEKYAKFFEDYGLFMREGIVTATEQEVKEDIAKLLRYESSALPSGQLTSLSEYASRMRAGTRNIYYLCAPNRHLAEHSPYYEAMKKKDTEVLFCFEQFDELTLLHLREFDKKKLISVETDIVVDHYKEEKFEDRSPAAECLSEKETEELMAWMRNVLGSRVTNVKVTLRLDTHPAMVTVLEMGAARHFLRMQQLAKTQEERAQLLQPTLEINPRHALIKKLNQLRASEPGLAQLLVDQIYENAMIAAGLVDDPRAMVGRLNELLVKALERH

Reference: paper PMC9751095
